23 sequences from publication PMC7819943, “Rice protein-binding microarrays: a tool to detect cis-acting elements near promoter regions in rice” can be followed below.

The list shows a part of the results.

In the assay the target is T1, OsSMF1 (Oryza sativa, UniProt Q6ZLB0 1-436).
T1 sequence: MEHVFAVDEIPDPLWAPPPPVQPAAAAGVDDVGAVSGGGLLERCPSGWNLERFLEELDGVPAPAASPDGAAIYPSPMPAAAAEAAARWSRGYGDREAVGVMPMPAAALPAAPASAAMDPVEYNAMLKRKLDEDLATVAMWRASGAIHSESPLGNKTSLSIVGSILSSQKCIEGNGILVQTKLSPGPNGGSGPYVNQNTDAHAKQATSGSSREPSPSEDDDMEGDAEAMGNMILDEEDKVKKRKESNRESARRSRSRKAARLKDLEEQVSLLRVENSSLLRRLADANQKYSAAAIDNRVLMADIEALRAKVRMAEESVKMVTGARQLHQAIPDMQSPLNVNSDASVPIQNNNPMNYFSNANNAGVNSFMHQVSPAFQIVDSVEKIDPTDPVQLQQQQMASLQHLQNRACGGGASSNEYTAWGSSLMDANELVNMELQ
Kind of assay: protein-binding microarray (RPBM); PBS, 2% BSA, 51.3 ng/ul salmon testes DNA, 50 uM zinc acetate, 200 nM TF, 25 C, 1 h; high values mean tight binding. As to conditions: protein: recombinant; tags: N-terminal polyhistidine and DsRed monomer fusion (pET32a); chain copies: 2; label: CyDye5-dUTP incorporated in the synthesized complementary strand; 3' TTTTT single-stranded linker to array surface; dsDNA, one strand shown. The method, boiled down: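 Transcription factors, each fused N-terminally to a polyhistidine tag and DsRed, were expressed in E. coli BL21-CodonPlus and purified on Ni–NTA. A custom Agilent array was made double-stranded by primer extension with Cy5-dUTP and blocked with 2% BSA. It was incubated with 200 nM protein in PBS, 2% BSA, salmon testes DNA and 50 µM zinc acetate at 25 °C for 1 h, then washed. The binding signal is per-feature fluorescence intensity (arbitrary units) read on an Axon 4000B scanner.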
As to “AAAGTTTCTGTCCAAATTGGACAGTTGTGACAGTCATCACCGGAGTCACCTAGTGCAG”, the binding signal is 3670 fluorescence intensity (a.u.). As to “TCCAATTCACAATTATAAATGATGTGGTGGCACCATGGCACGGAGTCACCTAGTGCAG”, the binding signal is 3310 fluorescence intensity (a.u.).

As to “TGCTCCAGCTTATGATTGCCACCTTCCAATTGAATGCCGGCGGAGTCACCTAGTGCAG”, the binding signal was 24400 fluorescence intensity (a.u.). In the case of “ATCTTTTGGAGATGTTTATAGTGATATAGTGCACGTGTGTCGGAGTCACCTAGTGCAG”, the binding signal was 3700 fluorescence intensity (a.u.). In the case of “ACATCCCTTGGTCATGAACTCATGATCGAGTGGTCCAAATCGGAGTCACCTAGTGCAG”, the binding signal is 4310 fluorescence intensity (a.u.). Next, “TCGTGCTCCTCGCCGTCACACTCGCCGCCGCCGCCGCCACCGGAGTCACCTAGTGCAG”: 3520 fluorescence intensity (a.u.). In the case of “GATTCTTCCGGAGTTCGTGACCACGTCAGAGTTTTCCGCCCGGAGTCACCTAGTGCAG”, the binding signal was 11700 fluorescence intensity (a.u.). Next, “GGTTATAGGGCTTGTTTGGTTCTTTACCCTACCAATTCATCGGAGTCACCTAGTGCAG”: 3220 fluorescence intensity (a.u.); “CGGACAAAGGCCACGTCAGATGGCCCTGTAGGTCACAGGCCGGAGTCACCTAGTGCAG”: 12100 fluorescence intensity (a.u.); “CTCGATACAGAGTGAGCGGGGTATGGCAATGACGAGCTATCGGAGTCACCTAGTGCAG”: 3160 fluorescence intensity (a.u.). With “TTCAGCTAGAAAATAATAAAATAATGCGTTCGGTGTCATACGGAGTCACCTAGTGCAG” the figure was 3920 fluorescence intensity (a.u.). As to “GTGTGTGCTGTGGTGGAGAGGAGAAAGGGAGGAAGAAGAGCGGAGTCACCTAGTGCAG”, the binding signal is 3560 fluorescence intensity (a.u.). As for “TGTCGCTACCCTAGAGGTCGAGGCCAGGAAGGTTAGATCCCGGAGTCACCTAGTGCAG”, the binding signal is 3560 fluorescence intensity (a.u.).

For “AAAGTCAATATAGGAATACAATTTAGAAGTAACTTAAATTCGGAGTCACCTAGTGCAG”, the binding signal is 25600 fluorescence intensity (a.u.). Take “TGCTACCAACGGCCGGTATCAATCCATGTCATGTCTGTCACGGAGTCACCTAGTGCAG”: the binding signal is 4330 fluorescence intensity (a.u.). Next, “CTGCCATCTGGGCCCCACGCCTCCCGGCCCCACATGCCAGCGGAGTCACCTAGTGCAG”: 4510 fluorescence intensity (a.u.). As for “GGAACATAACAAAGTGGGACTTATATATCAGTGACTCAATCGGAGTCACCTAGTGCAG”, the binding signal was 5790 fluorescence intensity (a.u.).

With “CAAAGGACACGTACACACCAAGAACCAGGACACTAGTAGGCGGAGTCACCTAGTGCAG”, the binding signal was 5470 fluorescence intensity (a.u.).

Take “CGCACGGTGCCCTTGACGTCCACGTCGACCGCGACCACCACGGAGTCACCTAGTGCAG”: the binding signal was 11800 fluorescence intensity (a.u.). With “GGCGGCGTCGGGGAAGGAAGAGGGCCGGGGCACCAGCGGCCGGAGTCACCTAGTGCAG” the figure was 3270 fluorescence intensity (a.u.); with “TAGTAGTGTATTTAAATAGATAATAAGTAGAATGACTCATCGGAGTCACCTAGTGCAG”, 5410 fluorescence intensity (a.u.).

Turning to “GTCCAGTACTCCAGTCATGTACCAACCCTTCGTCCCAAGTCGGAGTCACCTAGTGCAG”, the binding signal was 3220 fluorescence intensity (a.u.). As to “TAGCGAGCTAGCGTGTACACATTTCAATTATATATGGTGCCGGAGTCACCTAGTGCAG”, the binding signal was 3690 fluorescence intensity (a.u.).
